Measured values as given in patent US20160009795A1 (BIOCARE MEDICAL, published 2016).
Results are given in words; binding and its absence hold for the method and conditions named. Some binding calls cover weakened binding; strength is not graded here.

Experiments:
p40 protein (human) [1] = biological target: T1, p40 protein (human) (UniProt Q9H3D4); experiment: ELISA, Western blot, IHC
T1 sequence (looked up): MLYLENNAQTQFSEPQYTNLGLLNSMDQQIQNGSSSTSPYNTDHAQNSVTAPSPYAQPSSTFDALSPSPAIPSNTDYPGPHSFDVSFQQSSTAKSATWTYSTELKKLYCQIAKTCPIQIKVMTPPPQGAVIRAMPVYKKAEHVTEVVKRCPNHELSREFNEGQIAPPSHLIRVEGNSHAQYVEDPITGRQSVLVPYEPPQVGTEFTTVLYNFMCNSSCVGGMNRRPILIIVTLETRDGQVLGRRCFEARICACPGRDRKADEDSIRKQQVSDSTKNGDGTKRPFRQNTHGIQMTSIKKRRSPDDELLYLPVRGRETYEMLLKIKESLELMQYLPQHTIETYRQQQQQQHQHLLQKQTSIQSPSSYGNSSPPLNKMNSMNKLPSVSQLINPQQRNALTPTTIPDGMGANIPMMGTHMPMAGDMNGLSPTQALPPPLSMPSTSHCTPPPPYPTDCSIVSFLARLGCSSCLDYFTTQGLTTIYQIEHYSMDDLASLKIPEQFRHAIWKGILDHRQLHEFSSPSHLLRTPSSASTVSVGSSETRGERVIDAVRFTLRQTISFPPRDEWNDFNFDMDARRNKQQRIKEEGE

p40 protein (human) [2] = biological target: T1, p40 protein (human); experiment: Western blot on p40 transfected cell lysate

binding (p40 protein (human) [1]): binds
binding (p40 protein (human) [2]): binds
B1: mouse monoclonal anti-p40 antibody BC28 (antibody, mouse IgG1, V domains shown)
VH: GVKLVESGGGFVKPGGSLTLSCAASGFTFSIYAMSWVRQTPEKRLEWVTSISSGDDIFYPDNLKGQFTISRDNARNILYLQMSSLRSEDTAIYYCVRHGYNATDYWGQGTSVTVSS
VL: DVLMTQTPLSLPVSLGDQASISCRSSQSIVYSNGNTYLEWYLQKPGQSPKLLIYKVSNRFSGVPDRFSGSGSGTDFTLKISRVEAEDLGVYYCFQGSHVPFTFGSGTKLEIK
notes: also called p40 [BC28]; p40 (M)
